Positions count from the first letter of the chain named. These are yes or no findings as the source states them, for the method shown. Binding seen in cells or lysates may run through a third protein. Some results given as binding are weak or reduced against the parent protein; the word gives no strength. Where a sequence is shown, tags or fusion partners need not be part of it.

By UniProt entry, the sequences of proteins in these tests, tags left out. Residues count along the entry.
UniProt Q13705, residues 19-512: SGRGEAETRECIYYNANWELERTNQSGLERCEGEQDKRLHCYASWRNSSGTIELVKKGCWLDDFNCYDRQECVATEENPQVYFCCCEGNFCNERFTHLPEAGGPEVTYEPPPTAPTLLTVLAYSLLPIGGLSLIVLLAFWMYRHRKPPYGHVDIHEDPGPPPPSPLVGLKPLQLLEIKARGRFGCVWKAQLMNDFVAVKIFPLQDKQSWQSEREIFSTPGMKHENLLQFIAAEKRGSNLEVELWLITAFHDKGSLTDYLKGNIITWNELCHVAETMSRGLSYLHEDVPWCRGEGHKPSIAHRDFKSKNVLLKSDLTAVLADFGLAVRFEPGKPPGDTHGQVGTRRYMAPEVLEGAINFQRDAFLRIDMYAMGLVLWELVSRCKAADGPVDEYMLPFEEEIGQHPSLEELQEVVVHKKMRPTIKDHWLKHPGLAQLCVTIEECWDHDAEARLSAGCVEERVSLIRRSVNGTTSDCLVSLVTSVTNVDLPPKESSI

The target in assay [1] is T1, Myc-tagged ACVR1 (wild type) (UniProt Q04771).
T1 sequence: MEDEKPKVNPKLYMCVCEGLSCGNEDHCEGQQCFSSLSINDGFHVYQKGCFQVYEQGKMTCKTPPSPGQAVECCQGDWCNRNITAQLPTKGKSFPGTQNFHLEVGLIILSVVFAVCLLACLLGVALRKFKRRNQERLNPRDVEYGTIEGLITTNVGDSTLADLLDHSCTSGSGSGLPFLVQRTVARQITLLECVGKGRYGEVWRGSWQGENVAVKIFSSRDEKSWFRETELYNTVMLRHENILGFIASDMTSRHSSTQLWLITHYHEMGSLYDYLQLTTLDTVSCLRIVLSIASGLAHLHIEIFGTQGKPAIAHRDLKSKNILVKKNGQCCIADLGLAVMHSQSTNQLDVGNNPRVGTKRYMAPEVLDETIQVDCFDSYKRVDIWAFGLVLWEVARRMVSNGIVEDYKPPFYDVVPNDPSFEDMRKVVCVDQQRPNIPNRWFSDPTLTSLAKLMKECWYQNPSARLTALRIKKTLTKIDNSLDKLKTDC
Kind of assay: co-IP; Myc immunoprecipitation (Myc-IP kit) from membrane fractions of transfected W20 cells (HEK293 cells also transfected), 48 h after transfection, serum-free media with or without ACVRIIB-Fc; blots with anti-ACVR1 and anti-HA.

Assay [2] has as its target T2, Myc-tagged ACVR1[R206H] (UniProt Q04771).
T2 sequence: T1 sequence with R186H
The description is as above.

In the case of “HA-tagged ACVR2B (from UniProt Q13705 19-512) (receptor)”, the binding result in assay [1] and in assay [2] was “binds” in each case.
